Measurements published in PubChem BioAssay AID1347423 (Functional Genomics Laboratory (NCATS/FGL), 2020).
About 210 (0.4%) of roughly 52,000 sequences were called active.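 How the source made its calls: active means gene whose silencing raises cell survival under the drug, median off-target-corrected z-score across its silencing RNAs 2 or more; inactive means the rest.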 The list shows a part of the results.

Test: Resistance to Poly (ADP-Ribose) Polymerase inhibitor: Gene Identification via Genome-wide siRNA Screen
Details: mouse BRCA2 R2336H ES cells, olaparib, CellTiter-Glo viability; active compounds read high
In short: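 Mouse BRCA2 R2336H ES cells were reverse-transfected with siRNA (20 nM final), treated at 48 h with 500 nM olaparib, and read by CellTiter-Glo after 72 h. Scores: MAD-based z per siRNA, median per gene, seed off-target correction.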

Sequence	z-score
GCUGGAGAUGAUUGUCUGATT against Psmd8	inactive: -3.5
GGAAUACACUUACCUAGGUTT against Tpd52l2	inactive: 1.03
CCACGUUUUGACUGACUUCTT against Thnsl1	inactive: -0.384
GGUAAAAGGUGAAGAAAAATT against Nap1l3	inactive: 0.773
GCGGCAGAUCUUCGAUUUCTT against 2610200G18Rik	inactive: -0.616
GGACUCAGAGCUCUUUGACTT against Ipo13	inactive: 0.424
CCAUGAGGAUGGAAACUACTT against Ranbp3	inactive: 0.505
GCUUGUUUAGUAUACAGCCTT against 4933412H03Rik	inactive: 1.15
GGCAAAGACAUUGAUCCACTT against AI315119	inactive: -0.126
GGAUACACUGUUUGAAUGUTT against Cks1	inactive: -0.594
GGAACUGCCUACCUAGAGATT against Mrps17	inactive: -1.67
GCUAAUGGUAUAAAUGGAUTT against A130038L21Rik	inactive: 0.801
GGGUAGUUAUGACUAAAUUTT against 9430077C05Rik	inactive: -0.398
CCUUUAUCAUUGGAUAACUTT against Dusp11	inactive: 0.848
GGCAGUUCUCCAGUGCUUUTT against Mtss1	inactive: -0.0935
GGACAGUUUGAUGAUGCCGTT against 2410022L05Rik	inactive: -0.752
GGAUAGGUUGAACAGGUUGTT against BC028528	inactive: 0.0483
GGUUUUAGUAAACUUCCCATT against 2810485I05Rik	inactive: 0.715
GCUAUGUGAGUUCCACAAATT against Rapsn	inactive: 2.01
CCUGUUCUAACUGUAUCUUTT against Pcdhb9	inactive: -0.438
GGUUUAAGAAGUCAACAUUTT against Slc36a4	inactive: 1.11
GCUAUGUCAACAGUAACAUTT against Mell1	inactive: -1.2
ACUCAAUGUGCUCAAAAAATT against Scnm1	inactive: 0.0832
GCCCAAAUCGCUUACUCAUTT against Rtn4ip1	inactive: -1.26
GGUGCAACAAUCAUUUGAATT against Casp4	inactive: 0.187
GGCUCUUUUCUCUUUGCUGTT against F730108M23Rik	inactive: -0.31

Sequence	z-score
CUUUGCUCUAUCUCUCAGCTT against Olfr504	inactive: -0.122
CCAUCGAGUAAAGUUUGAATT against AY616753	inactive: -0.537
GGACAACAUUGCCUGUACUTT against Islr	inactive: -1.45
GGUAGCCAAACUUCGUCGATT against Trim37	inactive: -0.889
CCCAUGCUCUCAAGACCAATT against Epn3	inactive: 0.597
CCUUUCCUACUCCCAACACTT against Egr1	inactive: 0.197
GGCUUGUUCAAGAGAAGAUTT against 4933406J04Rik	inactive: -1.1
GGAGGUAAAAAGUGCCUUATT against Olfr1040	inactive: -0.0372
GGGCGACUAUGUGUGGACUTT against Mmp19	inactive: 1.97
GGCUACACAGAAUAAUAAATT against Rpl14	inactive: -3.08
GGACAGCUGGACCUAAAGGTT against Slco4a1	inactive: 0.623
GGUGAAGAAUCCACCUGAUTT against Eva1	inactive: -0.726
CCCUCUAAGAAUUAAAAAGTT against BC060631	inactive: 1.11
CCAUUGACUCCUUCAUCUUTT against Olfr988	inactive: 0.944
GCAACAGGUUAGAAUAGACTT against Scd3	inactive: -0.34
CGAACAUCUCAGCAGUGAATT against Dapk3	inactive: 0.356
GCAGAUUUUGACUAAAGGATT against Sbds	inactive: 1.12
GGUGCAAGAUCAAGAACUGTT against C1r	inactive: -1.09
GCUGAGAGUAUCCUUAUUCTT against 6330505N24Rik	inactive: -0.187
CCGAAAUCAUCUGAGAGCGTT against Rhced	inactive: 1.01
CCGUAUGUAACCAUCAAAGTT against Ncf1	inactive: -0.395
GGAUCUUAAGAAGUUCCAATT against 0710001P09Rik	inactive: -0.902
GCCAAGUGGGACAAAUUCGTT against Dnchc2	inactive: 0.994
CCUUCCAGGAUUUAUUGUGTT against Nr2f1	inactive: 0.405
GGUUCCUCCAUUGUUGAAATT against Olfr701	inactive: 0.546
GCACUUAAUGCAAUAUGGATT against Clock	inactive: -0.134

For convenience, some entries already given:
Sequence	z-score
GGAGGUAAAAAGUGCCUUATT against Olfr1040	inactive: -0.0372
GGGCGACUAUGUGUGGACUTT against Mmp19	inactive: 1.97
GGCUACACAGAAUAAUAAATT against Rpl14	inactive: -3.08
GGACAGCUGGACCUAAAGGTT against Slco4a1	inactive: 0.623
